For assay [1], the target named is T1, DNA polymerase η (Polη), Gal4BD fusion from pGBKT7-RAD30 (S. cerevisiae) (UniProt Q04049).
T1 sequence: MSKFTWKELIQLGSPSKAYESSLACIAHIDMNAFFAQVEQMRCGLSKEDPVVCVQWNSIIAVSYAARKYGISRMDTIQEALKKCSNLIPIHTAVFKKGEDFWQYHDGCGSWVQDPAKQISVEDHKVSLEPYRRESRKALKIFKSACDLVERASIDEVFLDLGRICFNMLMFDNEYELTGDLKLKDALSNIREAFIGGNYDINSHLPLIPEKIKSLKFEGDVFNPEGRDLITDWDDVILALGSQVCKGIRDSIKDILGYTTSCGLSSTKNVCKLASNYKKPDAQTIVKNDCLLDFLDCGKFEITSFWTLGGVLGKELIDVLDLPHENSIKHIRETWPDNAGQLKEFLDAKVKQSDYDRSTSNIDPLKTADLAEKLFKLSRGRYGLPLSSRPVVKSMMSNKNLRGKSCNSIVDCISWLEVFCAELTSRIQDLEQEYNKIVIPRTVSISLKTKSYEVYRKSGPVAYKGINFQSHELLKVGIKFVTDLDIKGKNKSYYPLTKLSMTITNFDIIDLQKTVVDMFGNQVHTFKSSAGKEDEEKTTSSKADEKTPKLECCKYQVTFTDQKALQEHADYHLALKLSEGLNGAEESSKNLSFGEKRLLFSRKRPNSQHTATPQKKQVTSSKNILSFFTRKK
In words: two-hybrid.

Assay [2] addresses T2, Polη D570A mutant (inactive UBZ domain), yeast two-hybrid fusion (S. cerevisiae) (UniProt Q04049).
T2 sequence: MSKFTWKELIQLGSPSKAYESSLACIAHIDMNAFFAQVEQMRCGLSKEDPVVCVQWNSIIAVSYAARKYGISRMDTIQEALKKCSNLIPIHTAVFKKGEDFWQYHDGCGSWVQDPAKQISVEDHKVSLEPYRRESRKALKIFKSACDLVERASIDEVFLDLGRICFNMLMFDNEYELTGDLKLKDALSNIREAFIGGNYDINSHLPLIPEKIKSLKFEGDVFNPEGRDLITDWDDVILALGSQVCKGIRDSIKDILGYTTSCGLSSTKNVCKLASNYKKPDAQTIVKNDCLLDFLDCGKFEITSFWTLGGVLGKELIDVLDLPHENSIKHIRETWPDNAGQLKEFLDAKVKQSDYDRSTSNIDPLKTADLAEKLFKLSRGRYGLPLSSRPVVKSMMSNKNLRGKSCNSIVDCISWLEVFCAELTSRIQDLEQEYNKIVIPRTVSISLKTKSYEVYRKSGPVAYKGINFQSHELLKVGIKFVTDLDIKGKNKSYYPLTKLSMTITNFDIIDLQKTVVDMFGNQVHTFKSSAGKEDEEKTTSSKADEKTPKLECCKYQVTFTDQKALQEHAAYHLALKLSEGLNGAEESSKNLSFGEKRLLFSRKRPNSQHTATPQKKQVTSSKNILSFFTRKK
In words: two-hybrid.

Assay [3] concerns the target T3, DNA polymerase η (Polη), expressed in S. cerevisiae for co-immunoprecipitation (S. cerevisiae) (UniProt Q04049).
T3 sequence: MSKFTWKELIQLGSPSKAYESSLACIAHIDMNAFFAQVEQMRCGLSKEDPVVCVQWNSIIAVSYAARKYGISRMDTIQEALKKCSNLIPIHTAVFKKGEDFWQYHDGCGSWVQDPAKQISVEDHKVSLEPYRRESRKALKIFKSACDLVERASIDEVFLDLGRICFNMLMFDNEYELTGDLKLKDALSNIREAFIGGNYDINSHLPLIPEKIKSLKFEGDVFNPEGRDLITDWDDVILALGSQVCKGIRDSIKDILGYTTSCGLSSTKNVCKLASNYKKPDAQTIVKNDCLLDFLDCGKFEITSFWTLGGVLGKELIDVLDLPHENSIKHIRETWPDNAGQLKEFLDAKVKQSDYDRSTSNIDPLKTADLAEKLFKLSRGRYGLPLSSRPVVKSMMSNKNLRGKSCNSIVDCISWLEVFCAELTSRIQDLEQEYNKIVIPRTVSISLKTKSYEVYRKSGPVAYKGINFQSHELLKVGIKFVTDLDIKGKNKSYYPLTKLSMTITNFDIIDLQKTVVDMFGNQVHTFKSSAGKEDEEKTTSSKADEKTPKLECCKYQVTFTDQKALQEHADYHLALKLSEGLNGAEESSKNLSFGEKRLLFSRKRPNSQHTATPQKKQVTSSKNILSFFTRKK
Briefly: co-IP.

The target of assay [4] is T4, Lsm12, yeast two-hybrid fusion tested against Ubp3 (S. cerevisiae) (UniProt P38828).
T4 sequence: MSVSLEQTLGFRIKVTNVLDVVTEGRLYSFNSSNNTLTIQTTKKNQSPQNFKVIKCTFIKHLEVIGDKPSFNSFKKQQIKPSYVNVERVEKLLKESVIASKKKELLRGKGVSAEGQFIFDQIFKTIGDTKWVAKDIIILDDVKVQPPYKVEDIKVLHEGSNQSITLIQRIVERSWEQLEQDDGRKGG
In words: two-hybrid.

The target in assay [5] is T5, Lsm12, expressed in S. cerevisiae for co-immunoprecipitation (S. cerevisiae) (UniProt P38828).
T5 sequence: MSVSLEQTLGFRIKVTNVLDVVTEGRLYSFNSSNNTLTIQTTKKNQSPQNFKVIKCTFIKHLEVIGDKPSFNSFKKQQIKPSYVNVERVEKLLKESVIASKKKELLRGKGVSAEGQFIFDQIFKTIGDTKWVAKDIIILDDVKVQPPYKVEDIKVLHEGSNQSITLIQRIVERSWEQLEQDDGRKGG
Briefly: co-IP.

Results are given in words; binding and its absence hold for the method and conditions named. For some assays here: Binding seen in cells or lysates may run through a third protein. Some entries that bind do so weakly or less than the wild type. For some assays here: Sequences can lack the tags named with a protein.

B1: Lsm12, Gal4AD fusion from pGADT7-LSM12 (protein, UniProt P38828 1-187)
chain: MSVSLEQTLGFRIKVTNVLDVVTEGRLYSFNSSNNTLTIQTTKKNQSPQNFKVIKCTFIKHLEVIGDKPSFNSFKKQQIKPSYVNVERVEKLLKESVIASKKKELLRGKGVSAEGQFIFDQIFKTIGDTKWVAKDIIILDDVKVQPPYKVEDIKVLHEGSNQSITLIQRIVERSWEQLEQDDGRKGG
Consider B1, for which the results for the binding result in assay [1] and in assay [2] were “binds” and “no binding”, respectively.

B2: Lsm12, expressed in S. cerevisiae for co-immunoprecipitation (protein, UniProt P38828 1-187)
chain: MSVSLEQTLGFRIKVTNVLDVVTEGRLYSFNSSNNTLTIQTTKKNQSPQNFKVIKCTFIKHLEVIGDKPSFNSFKKQQIKPSYVNVERVEKLLKESVIASKKKELLRGKGVSAEGQFIFDQIFKTIGDTKWVAKDIIILDDVKVQPPYKVEDIKVLHEGSNQSITLIQRIVERSWEQLEQDDGRKGG
B2: in assay [3], the binding entry was “binds”.

B3: Ubp3, Gal4AD fusion from pGADT7-UBP3 (enzyme, UniProt Q01477 1-912)
chain: MNMQDANKEESYSMYPKTSSPPPPTPTNMQIPIYQAPLQMYGYTQAPYLYPTQIPAYSFNMVNQNQPIYHQSGSPHHLPPQNNINGGSTTNNNNINKKKWHSNGITNNNGSSGNQGANSSGSGMSYNKSHTYHHNYSNNHIPMMASPNSGSNAGMKKQTNSSNGNGSSATSPSYSSYNSSSQYDLYKFDVTKLKNLKENSSNLIQLPLFINTTEAEFAAASVQRYELNMKALNLNSESLENSSVEKSSAHHHTKSHSIPKHNEEVKTETHGEEEDAHDKKPHASKDAHELKKKTEVKKEDAKQDRNEKVIQEPQATVLPVVDKKEPEESVEENTSKTSSPSPSPPAAKSWSAIASDAIKSRQASNKTVSGSMVTKTPISGTTAGVSSTNMAAATIGKSSSPLLSKQPQKKDKKYVPPSTKGIEPLGSIALRMCFDPDFISYVLRNKDVENKIPVHSIIPRGIINRANICFMSSVLQVLLYCKPFIDVINVLSTRNTNSRVGTSSCKLLDACLTMYKQFDKETYEKKFLENADDAEKTTESDAKKSSKSKSFQHCATADAVKPDEFYKTLSTIPKFKDLQWGHQEDAEEFLTHLLDQLHEELISAIDGLTDNEIQNMLQSINDEQLKVFFIRNLSRYGKAEFIKNASPRLKELIEKYGVINDDSTEENGWHEVSGSSKRGKKTKTAAKRTVEIVPSPISKLFGGQFRSVLDIPNNKESQSITLDPFQTIQLDISDAGVNDLETAFKKFSEYELLPFKSSSGNDVEAKKQTFIDKLPQVLLIQFKRFSFINNVNKDNAMTNYNAYNGRIEKIRKKIKYGHELIIPEESMSSITLKNNTSGIDDRRYKLTGVIYHHGVSSDGGHYTADVYHSEHNKWYRIDDVNITELEDDDVLKGGEEASDSRTAYILMYQKRN
B3: the binding result in assay [4] was “binds”.

B4: Ubp3, expressed in S. cerevisiae for co-immunoprecipitation (enzyme, UniProt Q01477 1-912)
chain: MNMQDANKEESYSMYPKTSSPPPPTPTNMQIPIYQAPLQMYGYTQAPYLYPTQIPAYSFNMVNQNQPIYHQSGSPHHLPPQNNINGGSTTNNNNINKKKWHSNGITNNNGSSGNQGANSSGSGMSYNKSHTYHHNYSNNHIPMMASPNSGSNAGMKKQTNSSNGNGSSATSPSYSSYNSSSQYDLYKFDVTKLKNLKENSSNLIQLPLFINTTEAEFAAASVQRYELNMKALNLNSESLENSSVEKSSAHHHTKSHSIPKHNEEVKTETHGEEEDAHDKKPHASKDAHELKKKTEVKKEDAKQDRNEKVIQEPQATVLPVVDKKEPEESVEENTSKTSSPSPSPPAAKSWSAIASDAIKSRQASNKTVSGSMVTKTPISGTTAGVSSTNMAAATIGKSSSPLLSKQPQKKDKKYVPPSTKGIEPLGSIALRMCFDPDFISYVLRNKDVENKIPVHSIIPRGIINRANICFMSSVLQVLLYCKPFIDVINVLSTRNTNSRVGTSSCKLLDACLTMYKQFDKETYEKKFLENADDAEKTTESDAKKSSKSKSFQHCATADAVKPDEFYKTLSTIPKFKDLQWGHQEDAEEFLTHLLDQLHEELISAIDGLTDNEIQNMLQSINDEQLKVFFIRNLSRYGKAEFIKNASPRLKELIEKYGVINDDSTEENGWHEVSGSSKRGKKTKTAAKRTVEIVPSPISKLFGGQFRSVLDIPNNKESQSITLDPFQTIQLDISDAGVNDLETAFKKFSEYELLPFKSSSGNDVEAKKQTFIDKLPQVLLIQFKRFSFINNVNKDNAMTNYNAYNGRIEKIRKKIKYGHELIIPEESMSSITLKNNTSGIDDRRYKLTGVIYHHGVSSDGGHYTADVYHSEHNKWYRIDDVNITELEDDDVLKGGEEASDSRTAYILMYQKRN
On to B4, for which the binding entry in assay [5] was “binds”.

Values taken from publication doi:10.1101/392415.
